Laboratory results taken from publication PMC7764492.
No constants are given. Whether binding was seen depends on the method and setting. Binding seen in cells or lysates may run through a third protein. Some results given as binding are weak or reduced against the parent protein; the word gives no strength. Blank lines part the entries; values can stand above or below the molecule they belong to.

Chains of the proteins cited; added tags and fusions are not shown. Residues count along the entry.
UniProt Q9UM47, residues 40-2321: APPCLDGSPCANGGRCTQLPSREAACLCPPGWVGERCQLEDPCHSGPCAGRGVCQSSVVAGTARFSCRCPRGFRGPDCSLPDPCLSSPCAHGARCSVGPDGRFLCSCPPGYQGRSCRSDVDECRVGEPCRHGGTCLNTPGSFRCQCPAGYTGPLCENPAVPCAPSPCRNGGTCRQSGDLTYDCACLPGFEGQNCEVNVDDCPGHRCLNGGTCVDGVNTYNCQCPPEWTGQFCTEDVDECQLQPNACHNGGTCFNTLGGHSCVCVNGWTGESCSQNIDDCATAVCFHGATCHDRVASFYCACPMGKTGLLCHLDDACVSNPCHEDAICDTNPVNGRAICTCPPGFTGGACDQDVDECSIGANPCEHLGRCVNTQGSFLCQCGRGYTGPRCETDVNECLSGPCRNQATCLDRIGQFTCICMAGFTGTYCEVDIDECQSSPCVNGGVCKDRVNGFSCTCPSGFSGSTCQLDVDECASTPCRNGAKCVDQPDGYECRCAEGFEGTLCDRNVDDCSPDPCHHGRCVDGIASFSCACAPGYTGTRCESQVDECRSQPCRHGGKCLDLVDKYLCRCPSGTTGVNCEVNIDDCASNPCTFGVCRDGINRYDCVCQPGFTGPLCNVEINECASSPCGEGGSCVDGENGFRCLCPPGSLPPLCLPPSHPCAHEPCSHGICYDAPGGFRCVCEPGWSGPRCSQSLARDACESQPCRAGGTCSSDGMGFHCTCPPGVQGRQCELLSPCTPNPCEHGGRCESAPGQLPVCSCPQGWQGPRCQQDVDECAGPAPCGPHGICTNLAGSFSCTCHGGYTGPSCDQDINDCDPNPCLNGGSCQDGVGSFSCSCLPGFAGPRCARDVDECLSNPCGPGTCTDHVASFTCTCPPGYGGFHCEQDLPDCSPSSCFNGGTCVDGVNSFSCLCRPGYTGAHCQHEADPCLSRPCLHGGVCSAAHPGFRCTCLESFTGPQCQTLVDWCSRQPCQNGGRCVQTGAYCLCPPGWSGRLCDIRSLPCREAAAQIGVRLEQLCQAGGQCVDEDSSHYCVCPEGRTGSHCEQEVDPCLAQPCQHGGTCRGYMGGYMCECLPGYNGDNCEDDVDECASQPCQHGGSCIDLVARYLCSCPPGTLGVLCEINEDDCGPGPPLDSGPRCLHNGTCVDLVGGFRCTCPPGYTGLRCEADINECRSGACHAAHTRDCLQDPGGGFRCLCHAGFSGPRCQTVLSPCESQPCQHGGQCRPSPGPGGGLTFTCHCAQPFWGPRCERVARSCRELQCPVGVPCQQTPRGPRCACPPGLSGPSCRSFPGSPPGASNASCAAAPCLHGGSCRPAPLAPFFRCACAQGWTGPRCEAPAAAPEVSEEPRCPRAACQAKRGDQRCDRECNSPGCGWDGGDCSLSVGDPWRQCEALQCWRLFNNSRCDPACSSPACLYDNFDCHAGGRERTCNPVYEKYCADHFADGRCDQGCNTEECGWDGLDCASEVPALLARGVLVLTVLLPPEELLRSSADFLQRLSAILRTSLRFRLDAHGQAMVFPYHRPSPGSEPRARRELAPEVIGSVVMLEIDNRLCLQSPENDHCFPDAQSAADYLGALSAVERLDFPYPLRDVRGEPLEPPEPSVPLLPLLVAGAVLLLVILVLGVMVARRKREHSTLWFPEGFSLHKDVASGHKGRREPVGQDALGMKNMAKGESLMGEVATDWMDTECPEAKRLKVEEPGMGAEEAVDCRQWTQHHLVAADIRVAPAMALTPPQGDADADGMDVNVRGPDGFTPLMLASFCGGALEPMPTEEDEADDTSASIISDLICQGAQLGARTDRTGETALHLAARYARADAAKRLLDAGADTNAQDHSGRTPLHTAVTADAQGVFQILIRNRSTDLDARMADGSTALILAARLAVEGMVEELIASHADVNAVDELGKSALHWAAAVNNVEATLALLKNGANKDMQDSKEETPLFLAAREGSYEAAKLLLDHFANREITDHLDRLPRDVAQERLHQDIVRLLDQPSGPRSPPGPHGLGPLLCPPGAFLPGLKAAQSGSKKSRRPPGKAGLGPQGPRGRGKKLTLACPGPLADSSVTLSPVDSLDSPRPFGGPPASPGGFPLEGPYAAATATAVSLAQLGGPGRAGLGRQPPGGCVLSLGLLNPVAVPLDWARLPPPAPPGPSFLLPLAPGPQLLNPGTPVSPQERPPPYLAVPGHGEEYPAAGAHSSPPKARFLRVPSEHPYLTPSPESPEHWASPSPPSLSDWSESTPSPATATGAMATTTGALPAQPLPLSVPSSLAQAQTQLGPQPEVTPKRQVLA

Key:
[1] = molecular target: T1, ZIP4 (gene name SLC39A4), a zinc transporter (human (endogenous in PE01 and PE04)) (UniProt Q6P5W5); experiment: co-IP; Pierce Cross-link IP Kit; NOTCH3 antibody or ZIP4 antibody (20625-1-AP) or control IgG bound to beads; endogenous proteins in PE01 and PE04 cell lysates; detected by immunoblotting
T1 sequence: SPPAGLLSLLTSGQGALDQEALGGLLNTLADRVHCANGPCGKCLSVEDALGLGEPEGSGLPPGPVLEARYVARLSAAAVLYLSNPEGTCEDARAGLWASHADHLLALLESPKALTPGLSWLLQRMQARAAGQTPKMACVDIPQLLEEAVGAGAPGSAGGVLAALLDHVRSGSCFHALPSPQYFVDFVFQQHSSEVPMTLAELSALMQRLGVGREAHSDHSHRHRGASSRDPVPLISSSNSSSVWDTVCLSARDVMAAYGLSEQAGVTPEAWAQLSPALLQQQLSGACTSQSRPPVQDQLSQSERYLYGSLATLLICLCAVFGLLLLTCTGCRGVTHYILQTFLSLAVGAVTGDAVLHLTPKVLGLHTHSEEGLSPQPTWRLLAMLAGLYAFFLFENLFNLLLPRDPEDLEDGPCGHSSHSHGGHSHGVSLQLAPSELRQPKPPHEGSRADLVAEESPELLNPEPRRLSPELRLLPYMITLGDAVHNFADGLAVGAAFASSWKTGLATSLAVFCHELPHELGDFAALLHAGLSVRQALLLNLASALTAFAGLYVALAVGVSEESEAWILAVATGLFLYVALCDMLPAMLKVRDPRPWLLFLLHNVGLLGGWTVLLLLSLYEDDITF

[2] = molecular target: NOTCH3 (human (endogenous in PE01 and PE04)) (UniProt Q9UM47); experiment: as above

binding [1]: binds
Molecule: NOTCH3 (from UniProt Q9UM47 40-2321) (receptor)

binding [2]: binds
B1: ZIP4 (gene name SLC39A4), a zinc transporter (protein, UniProt Q6P5W5 23-647)
chain: T1 sequence
